Values from PubChem BioAssay AID1224829 (NIAID, 2016)
Shown is one part, drawn at random, of about 3,800 deposited reagents. 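Calls cover raised and lowered translocation; gene median uses one vendor's three siRNAs; qiagen siRNAs acted more weakly than ambion siRNAs.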 Entries without a mark were called inactive. Not all columns of the deposit are shown.

- Test: 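Follow-up of TLR4-NF-kappaB regulators using six separate siRNAs for each gene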 (follow-up of hits)
- Cells: mouse RAW264.7 G9 macrophage reporter cells
- Reagent: single siRNA against mouse genes, 100 nM
- Duration: 2 days of siRNA knock-down, then 40 min of LPS before fixing
- Treatment: LPS (Salmonella minnesota R595) at 10 ng/ml
- Measurement: 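Imaging of GFP-p65 after 40 min of LPS; nuclear over perinuclear ring intensity ratio, scaled to plate median and non-targeting control wells, given as z-score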
- Scale: p65 translocation z-score: higher = more nuclear NF-kappaB p65 after LPS
- Hit rule: 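Active means the replicate-mean z-score lies beyond plus or minus 2, in either direction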
- Meaning of the calls: active = changed p65 translocation (either direction); inactive = no clear change

| gene | PubChem SID | siRNA vendor or control pool | p65 translocation z-score, replicate mean |
| --- | --- | --- | --- |
| Stmn3 | SID315484848 | ambion single siRNA | 0.604 |
| Stmn3 | SID315484849 | ambion single siRNA | 0.806 |
| Stmn3 | SID315484850 | ambion single siRNA | -2.39 (active) |
| Stmn3 | SID315484851 | qiagen single siRNA | -0.478 |
| Stmn3 | SID315484852 | qiagen single siRNA | 0.863 |
| Stmn3 | SID315484853 | qiagen single siRNA | -3.23 (active) |
| Or52e15 | SID315488697 | ambion single siRNA | 1.43 |
| Or52e15 | SID315488698 | ambion single siRNA | -3.66 (active) |
| Or52e15 | SID315488699 | ambion single siRNA | -1.96 |
| Or52e15 | SID315488700 | qiagen single siRNA | 1.46 |
| Or52e15 | SID315488701 | qiagen single siRNA | 1.14 |
| Or52e15 | SID315488702 | qiagen single siRNA | -0.398 |
| Cck | SID315483909 | ambion single siRNA | -9.58 (active) |
| Cck | SID315483910 | ambion single siRNA | -2.76 (active) |
| Cck | SID315483911 | ambion single siRNA | -1.87 |
| Cck | SID315483912 | qiagen single siRNA | -0.974 |
| Cck | SID315483913 | qiagen single siRNA | -0.129 |
| Cck | SID315483914 | qiagen single siRNA | -2.9 (active) |
| Eif1 | SID315484926 | ambion single siRNA | 1.61 |
| Eif1 | SID315484927 | ambion single siRNA | -2.4 (active) |
| Eif1 | SID315484928 | ambion single siRNA | -4.79 (active) |
| Eif1 | SID315484929 | qiagen single siRNA | 0.547 |
| Eif1 | SID315484930 | qiagen single siRNA | -1.29 |
| Eif1 | SID315484931 | qiagen single siRNA | 0.612 |
| Adcy9 | SID315483666 | ambion single siRNA | -1.84 |
| Adcy9 | SID315483667 | ambion single siRNA | -0.186 |
| Adcy9 | SID315483668 | ambion single siRNA | -1.58 |
| Adcy9 | SID315483669 | qiagen single siRNA | -0.0756 |
| Adcy9 | SID315483670 | qiagen single siRNA | 0.296 |
| Adcy9 | SID315483671 | qiagen single siRNA | -3.98 (active) |
| Ttf2 | SID315486765 | ambion single siRNA | 2.86 (active) |
| Ttf2 | SID315486766 | ambion single siRNA | -4.51 (active) |
| Ttf2 | SID315486767 | ambion single siRNA | -2.15 (active) |
| Ttf2 | SID315486768 | qiagen single siRNA | 0.361 |
| Ttf2 | SID315486769 | qiagen single siRNA | 1.24 |
| Ttf2 | SID315486770 | qiagen single siRNA | 0.173 |
| Ndrg4 | SID315488415 | ambion single siRNA | 1.63 |
| Ndrg4 | SID315488416 | ambion single siRNA | -1.26 |
| Ndrg4 | SID315488417 | ambion single siRNA | -1.85 |
| Ndrg4 | SID315488418 | qiagen single siRNA | 1.81 |
| Ndrg4 | SID315488419 | qiagen single siRNA | 4.81 (active) |
| Ndrg4 | SID315488420 | qiagen single siRNA | -1.6 |
| Gpd1l | SID315489033 | ambion single siRNA | 0.377 |
| Gpd1l | SID315489034 | ambion single siRNA | -4.06 (active) |
| Gpd1l | SID315489035 | ambion single siRNA | -2.37 (active) |
| Gpd1l | SID315489036 | qiagen single siRNA | 1.07 |
| Gpd1l | SID315489037 | qiagen single siRNA | -1.28 |
| Gpd1l | SID315489038 | qiagen single siRNA | -3.5 (active) |
| Map6 | SID315484545 | ambion single siRNA | -2.02 (active) |
| Map6 | SID315484546 | ambion single siRNA | -1.43 |
| Map6 | SID315484547 | ambion single siRNA | -3.55 (active) |
| Map6 | SID315484548 | qiagen single siRNA | -2.29 (active) |
| Map6 | SID315484549 | qiagen single siRNA | -0.558 |
| Map6 | SID315484550 | qiagen single siRNA | -2.98 (active) |

Ordered by “p65 translocation z-score, replicate mean” (low to high): 9 of the entries above.
| gene | PubChem SID | siRNA vendor or control pool | p65 translocation z-score, replicate mean |
| --- | --- | --- | --- |
| Cck | SID315483909 | ambion single siRNA | -9.58 (active) |
| Or52e15 | SID315488698 | ambion single siRNA | -3.66 (active) |
| Cck | SID315483910 | ambion single siRNA | -2.76 (active) |
| Or52e15 | SID315488699 | ambion single siRNA | -1.96 |
| Cck | SID315483911 | ambion single siRNA | -1.87 |
| Cck | SID315483912 | qiagen single siRNA | -0.974 |
| Or52e15 | SID315488702 | qiagen single siRNA | -0.398 |
| Or52e15 | SID315488701 | qiagen single siRNA | 1.14 |
| Or52e15 | SID315488700 | qiagen single siRNA | 1.46 |
